The target in one experiment is T1, SFB-tagged-USP2 protein (UniProt O75604).
T1 sequence: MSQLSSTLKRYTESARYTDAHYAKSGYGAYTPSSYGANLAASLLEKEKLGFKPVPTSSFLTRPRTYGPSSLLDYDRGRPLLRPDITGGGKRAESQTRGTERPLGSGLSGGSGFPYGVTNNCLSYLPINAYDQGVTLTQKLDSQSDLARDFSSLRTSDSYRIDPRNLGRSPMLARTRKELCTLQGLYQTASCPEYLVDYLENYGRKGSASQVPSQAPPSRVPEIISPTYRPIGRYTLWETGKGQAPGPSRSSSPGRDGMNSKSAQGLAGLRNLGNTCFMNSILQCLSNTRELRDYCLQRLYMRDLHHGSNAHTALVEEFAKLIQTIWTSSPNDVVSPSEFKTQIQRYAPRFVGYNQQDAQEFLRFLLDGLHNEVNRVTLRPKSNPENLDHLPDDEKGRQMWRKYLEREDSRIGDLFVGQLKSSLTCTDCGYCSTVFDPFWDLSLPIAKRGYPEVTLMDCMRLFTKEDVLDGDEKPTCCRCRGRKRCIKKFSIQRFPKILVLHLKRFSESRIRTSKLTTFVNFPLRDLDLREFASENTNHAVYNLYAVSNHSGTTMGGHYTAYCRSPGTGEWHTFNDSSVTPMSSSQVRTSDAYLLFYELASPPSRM
Put plainly: affinity purification with mass spectrometry; biochemical purification of protein complexes formed by SFB-tagged USP2 in 293 cells; mass spectrometry.

By UniProt entry, the sequences of proteins in these tests, tags left out. Residues count along the entry.
UniProt Q9NZQ7, residues 19-290: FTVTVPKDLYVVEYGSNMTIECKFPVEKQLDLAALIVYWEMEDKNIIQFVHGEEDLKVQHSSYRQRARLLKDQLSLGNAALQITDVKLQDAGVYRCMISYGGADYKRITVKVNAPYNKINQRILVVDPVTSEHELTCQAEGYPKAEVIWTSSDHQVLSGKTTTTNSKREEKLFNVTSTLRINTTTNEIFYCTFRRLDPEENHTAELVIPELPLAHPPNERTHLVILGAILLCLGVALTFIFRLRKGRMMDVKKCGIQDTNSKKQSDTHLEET
UniProt Q9Y4B6: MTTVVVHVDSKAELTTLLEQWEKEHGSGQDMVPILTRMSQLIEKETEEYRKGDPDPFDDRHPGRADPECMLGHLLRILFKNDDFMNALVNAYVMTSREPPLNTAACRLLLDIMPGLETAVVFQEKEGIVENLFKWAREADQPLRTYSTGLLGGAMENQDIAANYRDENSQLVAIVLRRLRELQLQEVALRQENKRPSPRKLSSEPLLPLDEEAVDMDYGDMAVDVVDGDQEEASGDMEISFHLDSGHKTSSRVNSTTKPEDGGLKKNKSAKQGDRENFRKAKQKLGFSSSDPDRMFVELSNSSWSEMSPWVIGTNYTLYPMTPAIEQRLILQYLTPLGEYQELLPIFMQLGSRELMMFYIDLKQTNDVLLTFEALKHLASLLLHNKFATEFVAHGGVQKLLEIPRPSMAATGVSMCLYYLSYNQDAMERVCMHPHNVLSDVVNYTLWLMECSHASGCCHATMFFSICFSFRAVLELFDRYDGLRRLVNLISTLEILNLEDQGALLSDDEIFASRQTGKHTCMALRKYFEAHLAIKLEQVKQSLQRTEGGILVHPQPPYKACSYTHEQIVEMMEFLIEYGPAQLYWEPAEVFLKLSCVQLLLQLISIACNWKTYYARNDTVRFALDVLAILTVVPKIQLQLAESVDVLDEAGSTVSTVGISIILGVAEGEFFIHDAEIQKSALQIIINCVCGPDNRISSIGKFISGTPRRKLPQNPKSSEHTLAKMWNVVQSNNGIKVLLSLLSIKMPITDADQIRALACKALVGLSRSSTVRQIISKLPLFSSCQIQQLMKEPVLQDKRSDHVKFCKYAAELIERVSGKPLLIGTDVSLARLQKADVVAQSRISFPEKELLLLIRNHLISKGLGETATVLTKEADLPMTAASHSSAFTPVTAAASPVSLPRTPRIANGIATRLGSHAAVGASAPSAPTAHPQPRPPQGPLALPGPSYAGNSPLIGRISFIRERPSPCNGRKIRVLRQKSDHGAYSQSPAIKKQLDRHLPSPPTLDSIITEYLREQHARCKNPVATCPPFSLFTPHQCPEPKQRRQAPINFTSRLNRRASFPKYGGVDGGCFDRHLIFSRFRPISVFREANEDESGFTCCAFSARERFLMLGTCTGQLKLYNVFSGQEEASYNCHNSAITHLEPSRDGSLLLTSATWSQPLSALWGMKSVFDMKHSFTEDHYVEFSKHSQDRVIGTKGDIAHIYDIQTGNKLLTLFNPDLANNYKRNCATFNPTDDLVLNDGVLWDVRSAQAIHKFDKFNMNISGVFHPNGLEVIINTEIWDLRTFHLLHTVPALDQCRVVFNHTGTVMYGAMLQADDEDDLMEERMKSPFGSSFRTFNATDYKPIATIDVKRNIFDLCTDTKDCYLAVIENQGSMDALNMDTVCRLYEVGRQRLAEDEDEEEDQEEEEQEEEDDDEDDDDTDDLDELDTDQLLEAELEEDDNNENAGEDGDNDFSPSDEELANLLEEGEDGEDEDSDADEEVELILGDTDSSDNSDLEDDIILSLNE

Experiment [1] addresses C-terminal tagged PD-L1 (PD-L1-SFB) (human) (UniProt Q9NZQ7). Description: affinity purification with mass spectrometry; two-step affinity chromatography (anti-Flag M2-agarose beads and S-protein-agarose beads) from extracts of H1299 cells stably expressing PD-L1-SFB; LC-MS/MS.

This note sets out measurements from PMC10079682.

Results are given in words; binding and its absence hold for the method and conditions named. In cells and extracts the contact can be indirect. Here binding means that the protein was enriched with, or labelled near, the bait; the list need not be complete. For some assays here: Tags and fused reporters may be left off the sequences shown.

With “endogenous VPRBP (from UniProt Q9Y4B6 1-1507)”, the binding result (with SFB-tagged-USP2 protein; in experiment [1]) was “binds” in each case.
